# Experimental data published in PubChem BioAssay AID248 (DTP/NCI, 2004).
# The list shows only some results of the screen, not a fair sample: it gathers tests that were run many times, whatever their T/C, doses with no T/C, and many T/C values between a quarter and a half above the control. Further doses and runs are listed elsewhere. T/C is the treated group as % of the vehicle group. Some entries give survivors of the animals treated and no T/C: the source holds a T/C of zero for them, seemingly a mark for toxic or unscored doses. Some survivor counts are full or nearly so, which does not show that the dose was tolerated: survival well below the control is almost never listed, so the zero probably covers shortened survival too. Survivors were counted at the toxicity check, usually on the fifth day, unless a day is given; later deaths do not show. Schedules are NCI's codes, read here as Q, the interval in days (D) or hours (H), X, the number of doses. Some schedules carry Z or #; the key to these is not given. Some entries were tested several times; the values are given in rising order. For survival time, this PubChem deposit counts one and a half times the control or more as active, and values a quarter to a half above the control carry no call in these data; other NCI protocols may use other cut-offs. Some T/C values are followed by the survivors on the day toxicity was checked, most often the fifth; without a count, all were alive then.
# System: L1210 leukemia ip in BDF1 mice, survival T/C
# Assay: NCI In Vivo Anticancer Drug Screen. Data for tumor model L1210 Leukemia (intraperitoneal) in B6D2F1 (BDF1) mice
# Conditions: T/C endpoint: mean survival time, higher T/C = longer survival
# [1] = dose: 200.0 mg/kg/injection, schedule: Q01DX009 (ip), vehicle: Klucel (hydroxypropylcellulose) (HPC)
# [2] = dose: 400.0 mg/kg/injection, schedule: Q04DX003 (ip), vehicle: Klucel (hydroxypropylcellulose) (HPC)
# [3] = dose: 400.0 mg/kg/injection, schedule: Q01DX009 (ip), vehicle: Klucel (hydroxypropylcellulose) (HPC)
# [4] = dose: 400.0 mg/kg/injection, schedule: Q04DX003 (ip), vehicle: other
# [5] = dose: 200.0 mg/kg/injection, schedule: Q01DX001 (ip), vehicle: saline
# [6] = dose: 400.0 mg/kg/injection, schedule: Q01DX001 (ip), vehicle: saline
# [7] = dose: 75.0 mg/kg/injection, schedule: Q01DX001 (ip), vehicle: other
# [8] = dose: 150.0 mg/kg/injection, schedule: Q01DX001 (ip), vehicle: other
structure (smiles),measurement,setting,value
Cc1ccc(N2C(=O)CC(Sc3ccccc3N)C2=O)cc1Cl (centres undefined),survivor count,[1],3 of 6
CCOC(=O)c1cnc(C)nc1Nc1ccccc1F,survivor count,[2],0 of 6
Cc1ccc(N2C=Nc3ccc(C)cc3C2)cc1,survivor count,[3],5 of 6
same,survivor count,[4],0 of 6
COC(=O)C1=C(C(=O)OC)[C@H]2O[C@H]1[C@@H]1O[C@@H]12,survivor count,"dose: 25.0 mg/kg/injection, schedule: Q01DX009 (ip), vehicle: saline",0 of 6
same,survivor count,"dose: 50.0 mg/kg/injection, schedule: Q01DX001 (ip), vehicle: saline",0 of 6
same,survivor count,"dose: 100.0 mg/kg/injection, schedule: Q01DX001 (ip), vehicle: saline",0 of 6
same,survivor count,[5],0 of 6
same,survivor count,[6],0 of 6
CC(C)(C)C1CCC2(CC1)CO2 (centres undefined),survivor count,[5],3 of 6
same,survivor count,[6],1 of 6
COC(=O)c1ncccc1C(=O)O,survivor count,"dose: 200.0 mg/kg/injection, schedule: Q01DX009 (ip), vehicle: saline with Tween-80",3 of 6
O=NN(CCCl)C(=O)Nc1ccc2c(c1)Cc1ccccc1-2,T/C,"dose: 8.8 mg/kg/injection, schedule: Q01DX009 (ip), vehicle: carboxymethylcellulose (CMC)",129 % of control
same,T/C,"dose: 12.5 mg/kg/injection, schedule: Q01DX001 (ip), vehicle: carboxymethylcellulose (CMC)",125 % of control
same,T/C,"dose: 13.3 mg/kg/injection, schedule: Q01DX009 (ip), vehicle: carboxymethylcellulose (CMC)",136 % of control
same,T/C,"dose: 20.0 mg/kg/injection, schedule: Q01DX009 (ip), vehicle: carboxymethylcellulose (CMC)",136 % of control
same,T/C,"dose: 25.0 mg/kg/injection, schedule: Q01DX001 (ip), vehicle: carboxymethylcellulose (CMC)",138 % of control
same,T/C,"dose: 30.0 mg/kg/injection, schedule: Q01DX009 (ip), vehicle: carboxymethylcellulose (CMC)",148 % of control
same,T/C,"dose: 50.0 mg/kg/injection, schedule: Q01DX001 (ip), vehicle: carboxymethylcellulose (CMC)",132 % of control
same,T/C,"dose: 50.0 mg/kg/injection, schedule: Q01DX001 (ip), vehicle: other",127 % of control
same,T/C,"dose: 75.0 mg/kg/injection, schedule: Q01DX001 (ip), vehicle: carboxymethylcellulose (CMC)",135 % of control
same,T/C,[7],134 % of control [4 of 6 alive]
same,survivor count,"dose: 75.0 mg/kg/injection, schedule: Q01DX009 (ip), vehicle: other",4 of 6
same,T/C,"dose: 150.0 mg/kg/injection, schedule: Q01DX001 (ip), vehicle: carboxymethylcellulose (CMC)",146 % of control
same,survivor count,[8],3 of 6
same,survivor count,"dose: 225.0 mg/kg/injection, schedule: Q01DX001 (ip), vehicle: other",2 of 6
Nc1nc(N)c(N)c(=O)[nH]1,survivor count,"dose: 200.0 mg/kg/injection, schedule: Q04DX003 (ip), vehicle: Klucel (hydroxypropylcellulose) (HPC)",3 of 6
same,survivor count,[2],0 of 6
CCCCCCCCCCCC(=O)[O][Sn]([CH2]c1ccccc1)([CH2]c1ccccc1)[CH2]c1ccccc1,survivor count,"dose: 3.0 mg/kg/injection, schedule: Q01DX009 (ip), vehicle: other",3 of 6
same,survivor count,"dose: 6.0 mg/kg/injection, schedule: Q01DX009 (ip), vehicle: other",1 of 6
same,survivor count,"dose: 6.0 mg/kg/injection, schedule: Q04DX004 (ip), vehicle: other",2 of 6
same,survivor count,"dose: 12.0 mg/kg/injection, schedule: Q01DX009 (ip), vehicle: other",0 of 6
same,survivor count,"dose: 12.0 mg/kg/injection, schedule: Q04DX004 (ip), vehicle: other",1 of 6
same,survivor count,"dose: 25.0 mg/kg/injection, schedule: Q01DX009 (ip), vehicle: other",0 of 6
same,survivor count,"dose: 25.0 mg/kg/injection, schedule: Q04DX003 (ip), vehicle: other",2 of 6
same,survivor count,"dose: 25.0 mg/kg/injection, schedule: Q04DX004 (ip), vehicle: other",1 of 6
same,survivor count,"dose: 50.0 mg/kg/injection, schedule: Q01DX009 (ip), vehicle: other",0 of 6
same,survivor count,"dose: 50.0 mg/kg/injection, schedule: Q04DX003 (ip), vehicle: other",4 of 6
same,survivor count,"dose: 100.0 mg/kg/injection, schedule: Q01DX009 (ip), vehicle: other",0 of 6
same,survivor count,"dose: 100.0 mg/kg/injection, schedule: Q04DX003 (ip), vehicle: other",0 of 6 and 1 of 6
same,survivor count,"dose: 200.0 mg/kg/injection, schedule: Q01DX009 (ip), vehicle: other",0 of 6
same,survivor count,"dose: 200.0 mg/kg/injection, schedule: Q04DX003 (ip), vehicle: other",1 of 6
same,survivor count,[4],0 of 6
COC(=O)c1ccc(NCC(=N)N)cc1,survivor count,[6],1 of 6
O=[N+]([O-])c1ccccc1N=Nc1c(O)[nH]c2ccc(Cl)cc12,survivor count,[5],6 of 6
C[CH2][Ge]([CH2]C)([CH2]C)[CH2]CO,survivor count,"dose: 100.0 mg/kg/injection, schedule: Q04DX002 (ip), vehicle: saline with Tween-80",0 of 3
same,survivor count,"dose: 200.0 mg/kg/injection, schedule: Q04DX002 (ip), vehicle: saline with Tween-80",0 of 3
same,survivor count,"dose: 400.0 mg/kg/injection, schedule: Q04DX002 (ip), vehicle: saline with Tween-80",0 of 3
Ic1ncnc2nc[nH]c12,T/C,"dose: 132.0 mg/kg/injection, schedule: Q01DX009 (ip), vehicle: Klucel (hydroxypropylcellulose) (HPC)",130 % of control
same,T/C,[1],131 % of control
same,T/C,"dose: 250.0 mg/kg/injection, schedule: Q01DX Z (ip), vehicle: carboxymethylcellulose (CMC)",128 % of control
same,T/C,"dose: 300.0 mg/kg/injection, schedule: Q01DX009 (ip), vehicle: saline",143 % of control
same,survivor count,[3],0 of 6
same,survivor count,"dose: 500.0 mg/kg/injection, schedule: Q01DX Z (ip), vehicle: carboxymethylcellulose (CMC)",3 of 6
O=[Se]1OCc2ccccc2CO1,survivor count,[7],1 of 6
same,survivor count,[8],0 of 6
same,survivor count,"dose: 300.0 mg/kg/injection, schedule: Q01DX001 (ip), vehicle: other",0 of 6
CC(C)(C)/C(=N\[N+](C)(C)C)c1ccccc1,survivor count,"dose: 200.0 mg/kg/injection, schedule: Q04DX003 (ip), vehicle: saline",2 of 6
same,survivor count,"dose: 400.0 mg/kg/injection, schedule: Q04DX003 (ip), vehicle: saline",0 of 6
COC(=O)c1[nH]c(=O)[nH]c(=O)c1F,T/C,"dose: 2.0 mg/kg/injection, schedule: Q01DX Z (ip), vehicle: methylcellulose (MC)",140 % of control
same,T/C,"dose: 5.0 mg/kg/injection, schedule: Q01DX Z (ip), vehicle: carboxymethylcellulose (CMC)",133 % of control
same,T/C,"dose: 7.0 mg/kg/injection, schedule: Q01DX Z (ip), vehicle: carboxymethylcellulose (CMC)",142 % of control
same,T/C,"dose: 8.0 mg/kg/injection, schedule: Q04DX003 (ip), vehicle: saline with Tween-80",125 % of control
same,T/C,"dose: 12.0 mg/kg/injection, schedule: Q01DX Z (ip), vehicle: methylcellulose (MC)",143 % of control
same,T/C,"dose: 16.0 mg/kg/injection, schedule: Q01DX009 (ip), vehicle: saline with Tween-80",143 % of control
same,T/C,"dose: 16.0 mg/kg/injection, schedule: Q04DX003 (ip), vehicle: saline with Tween-80",141 % of control
same,T/C,"dose: 17.0 mg/kg/injection, schedule: Q01DX Z (ip), vehicle: carboxymethylcellulose (CMC)",149 % of control
same,survivor count,"dose: 60.0 mg/kg/injection, schedule: Q01DX Z (ip), vehicle: methylcellulose (MC)",6 of 6
same,survivor count,"dose: 64.0 mg/kg/injection, schedule: Q01DX009 (ip), vehicle: saline with Tween-80",6 of 6
CC(C)c1ccc(N2C(=O)C=CC2=O)cc1,survivor count,"dose: 50.0 mg/kg/injection, schedule: Q01DX009 (ip), vehicle: Klucel (hydroxypropylcellulose) (HPC)",0 of 6
same,survivor count,"dose: 100.0 mg/kg/injection, schedule: Q01DX009 (ip), vehicle: Klucel (hydroxypropylcellulose) (HPC)",0 of 6
same,survivor count,[1],0 of 6
same,survivor count,[3],0 of 6
CCC[CH2][Sn]([c]1ccccc1)([c]1ccccc1)[c]1ccccc1,survivor count,"dose: 400.0 mg/kg/injection, schedule: Q04DX003 (ip), vehicle: saline with Tween-80",2 of 6
